Data: PubChem BioAssay AID2685 (National Center for Advancing Translational Sciences (NCATS), 2010)
The other results are listed elsewhere or left out. The main result of the screen is listed elsewhere. These columns were measured beside it and carry no call. The list favours compounds with an active or inconclusive main result. Words in brackets tell the shape of the fitted curve; partial curves, single points and poor fits give uncertain potencies.

Assay: qHTS Assay for Lipid Storage Modulators in Drosophila S3 Cells;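 for cell number change: cells counted by Cell Tracker Red CMTPX staining in the red channel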
Settings: BODIPY lipid droplet fluorescence, 18-24 h; for cell number change: measured here: cell count max response, cells fed with added oleic acid
Outline: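 Drosophila S3 cells loaded with oleic acid (400 uM, as added) and compounds at several concentrations; lipid droplets imaged by 488-nm laser-scanning cytometry, 500–530 nm intensity and object ratio to cell channel. Percent activity normalized to 20 uM Triacsin C.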

[1] = measured here: lipid fluorescence (Fed channel) AC50, cells fed with added oleic acid
[2] = measured here: cell number channel AC50, cells fed with added oleic acid

Structure (SMILES)	cell number change	AC50 [1]	AC50 [2]
C=CCn1c(O)c(C(CC)=NC2CC2)c(=O)[nH]c1=O	-8.14%	4.61 µM [falling, partial curve, poor fit]	–
CCOc1ccc(N=Cc2c(O)n(-c3ccc(C)c(C)c3)c(=O)[nH]c2=O)cc1	16.7%	7.31 µM [falling, partial curve, poor fit]	–
O=[N+]([O-])c1ccc(NCc2ccccc2)c2nonc12	-85.7%	–	32.6 µM [falling, partial curve, poor fit]
COc1cccc(C(=O)C2CCCN(Cc3cccc4c3OCO4)C2)c1 (stereo unspecified)	2.22%	32.6 µM [rising, single point]	–
C#C[C@]1(O)CC[C@H]2[C@@H]3CCC4=CC(=O)CC[C@]4(C)[C@H]3CC[C@@]21C	32.3%	29.1 µM [falling, single point]	29.1 µM [rising, single point]
O=C1NC(=O)N(c2ccccc2)C(=O)/C1=C\C=C\c1ccccc1	-48%	–	3.26 µM [falling, full curve]
O=C(Nc1cccc(Cl)c1)OC1CN2CCC1CC2 (stereo unspecified)	-50.5%	5.8 µM [falling, full curve]	6.51 µM [falling, full curve]
CCCCn1c(O)c(C(C)=NCCCn2ccnc2)c(=O)[nH]c1=O	9.42%	1.84 µM [rising, partial curve]	–
c1ccc2sc(N3CCNCC3)nc2c1	-10.6%	29.1 µM [falling, single point]	–
Cc1nc2ccccc2n1C1CCN(Cc2nnnn2CCc2ccccc2)CC1	-11.5%	3.26 µM [rising, single point]	–
CC(=O)OC(C)(C)/C=C/C(=O)[C@](C)(O)[C@H]1[C@H](O)C[C@@]2(C)[C@@H]3CC=C4[C@H](C[C@H](O)C(=O)C4(C)C)[C@]3(C)C(=O)C[C@]12C	-21.4%	0.0206 µM [falling, full curve, poor fit]	0.103 µM [falling, full curve, poor fit]
CC12CCCCC1=NC(c1ccc(Br)cc1)N2O (stereo unspecified)	5.21%	29.1 µM [rising, single point]	–
CC(/C=C(\C)Nc1ccccc1)=Nc1ccccc1	-90.7%	–	29.1 µM [falling, single point]
COc1ccc(Cn2c(O)c(C=NCCN3CCOCC3)c(=O)[nH]c2=O)cc1	0.201%	3.66 µM [falling, single point]	–
C=C1C(=O)O[C@@H]2C[C@@H](C)[C@@H]3C4OC4C(=O)[C@@]3(C)[C@@H](O)[C@H]12 (stereo partly specified)	-72.6%	25.9 µM [falling, partial curve]	23.1 µM [falling, partial curve]
COC(=O)C1=C(c2ccccc2OCc2ccccc2)C[C@@H]2CC[C@H]1N2C(=O)NCc1cccc(C(F)(F)F)c1	-12.9%	14.6 µM [falling, single point]	–
Cc1ccc(C(=O)COC(=O)Cc2ccccc2)cc1	33.8%	–	6.31 µM [rising, partial curve, poor fit]
O=C1NC(=O)C2=Cc3ccc(O)cc3OC2(O)N1 (stereo unspecified)	62.3%	18.4 µM [rising, partial curve]	29.1 µM [rising, single point]

Part of the list above in order of count of non-hydrogen atoms, smallest number first.
Structure (SMILES)	cell number change	AC50 [1]	AC50 [2]
c1ccc2sc(N3CCNCC3)nc2c1	-10.6%	29.1 µM [falling, single point]	–
C=CCn1c(O)c(C(CC)=NC2CC2)c(=O)[nH]c1=O	-8.14%	4.61 µM [falling, partial curve, poor fit]	–
COc1ccc(Cn2c(O)c(C=NCCN3CCOCC3)c(=O)[nH]c2=O)cc1	0.201%	3.66 µM [falling, single point]	–

Further structures follow:

Structure (SMILES)	cell number change	AC50 [1]	AC50 [2]
CC(NC1=NCCS1)c1ccccc1 (stereo unspecified)	8.82%	–	–
Oc1ccc(C[C@H]2NCCc3cc(O)c(O)cc32)cc1O	11.7%	–	–
O=C1C(Cl)=CC(=Nc2ccc(O)cc2)C=C1Cl	-42.7%	0.651 µM [rising, partial curve, poor fit]	16.4 µM [falling, partial curve]
COC(=O)C(O)(c1ccc(NC(=S)NC(=O)c2ccc(Cl)cc2Cl)c(C)c1)C(F)(F)F (stereo unspecified)	-4.08%	0.58 µM [rising, single point]	–
NS(=O)(=O)OC(CCc1ccccc1)C(Cl)(Cl)Cl (stereo unspecified)	19.7%	20.6 µM [falling, single point]	–
COc1ccc(N2C(=O)/C(=C/c3ccc(C)o3)C(=O)NC2=S)c(OC)c1	-0.365%	0.731 µM [rising, full curve]	–
C=CCn1c(O)c(C(C)=Nc2ccc(NC(C)=O)cc2)c(=O)[nH]c1=O	-1.97%	–	–
O=C(Cn1ncc2ccsc2c1=O)N1CCC2(CC1)OCCO2	12.6%	0.0058 µM [rising, full curve, poor fit]	–
Cc1cc(C)n(-c2ccc(NN=C(C#N)C#N)cc2)n1	-51.9%	18.4 µM [falling, single point]	18.4 µM [falling, single point]
CCOc1ccc(/C=C2/C(=O)NC(=O)N(CCc3ccc(F)cc3)C2=O)cc1	-0.249%	1.84 µM [rising, partial curve, poor fit]	–
CC1SC2(CN3CCC2CC3)NC1=O (stereo unspecified)	-2.82%	–	–
CCCOC(=O)c1c(N)n(Cc2cccs2)c2nc3ccccc3nc12	-1.74%	0.517 µM [rising, full curve]	0.291 µM [rising, full curve]
CCc1c(C)nc(N)nc1N1N=C1SCC(N)=O	31.3%	0.116 µM [rising, full curve, poor fit]	32.6 µM [rising, single point]
C=C1C(=O)O[C@@H]2C[C@@H](C)[C@@H]3C=CC(=O)[C@@]3(C)[C@@H](OC(C)=O)[C@H]12	–	–	6.51 µM [falling, partial curve]
CCc1ccccc1N1C(=O)/C(=C/c2ccc(N3CCN(C)CC3)o2)C(=O)NC1=S	-31.1%	11.6 µM [falling, partial curve]	29.1 µM [falling, single point]
OC(CCNCCc1c[nH]c2ccccc12)C(F)(F)F (stereo unspecified)	-20.7%	3.66 µM [falling, full curve, poor fit]	–
C=CCN1C(=O)NC(=O)/C(=C/c2cnc(SC)nc2)C1=O	-52.1%	5.8 µM [falling, full curve, poor fit]	6.51 µM [falling, full curve]
